Results are given in words; binding and its absence hold for the method and conditions named. Where a sequence is shown, tags or fusion partners need not be part of it. Blank lines part the entries; values can stand above or below the binder they belong to.
Assays:
Experiment in all cases: SEC; Superdex 75 HR, 0.7 ml/min, TBS buffer with 5 mM DTT; for the mix each protein at 5 µM in 100 µl TBS with 5 mM DTT and 3% glycerol, 2 h at room temperature; UV 280 nm, SDS-PAGE of fractions; both purified
[1] = target: Flag-MnmC(o), C-terminal oxidoreductase domain of MnmC (amino acids 250-668) (E. coli) (UniProt P77182)
[2] = target: Flag-MnmC, full MnmC protein (E. coli) (UniProt P77182)
[3] = target: Flag-MnmC(m), N-terminal methyltransferase domain of MnmC (amino acids 1-250) (E. coli) (UniProt P77182)

binding [1]: no binding
B1: Flag-MnmC(o), C-terminal oxidoreductase domain of MnmC (amino acids 250-668) (domain or fragment, UniProt P77182 250-668)
chain: LPCSAPWFNRTGSSKREAAIIGGGIASALLSLALLRRGWQVTLYCADEAPALGASGNRQGALYPLLSKHDEALNRFFSNAFTFARRFYDQLPVKFDHDWCGVTQLGWDEKSQHKIAQMLSMDLPAELAVAVEANAVEQITGVATNCSGITYPQGGWLCPAELTRNVLELAQQQGLQIYYQYQLQNLSRKDDCWLLNFAGDQQATHSVVVLANGHQISRFSQTSTLPVYSVAGQVSHIPTTPELAELKQVLCYDGYLTPQNPANQHHCIGASYHRGSEDTAYSEDDQQQNRQRLIDCFPQAQWAKEVDVSDKEARCGVRCATRDHLPMVGNVPDYEATLVEYASLAEQKDEAVSAPVFDDLFMFAALGSRGLCSAPLCAEILAAQMSDEPIPMDASTLAALNPNRLWVRKLLKGKAVKAG

binding [2]: no binding
B2: Flag-MnmC, full MnmC protein (enzyme, UniProt P77182 1-668)
chain: MKHYSIQPANLEFNAEGTPVSRDFDDVYFSNDNGLEETRYVFLGGNQLEVRFPEHPHPLFVVAESGFGTGLNFLTLWQAFDQFREAHPQAQLQRLHFISFEKFPLTRADLALAHQHWPELAPWAEQLQAQWPMPLPGCHRLLLDEGRVTLDLWFGDINELTSQLDDSLNQKVDAWFLDGFAPAKNPDMWTQNLFNAMARLARPGGTLATFTSAGFVRRGLQDAGFTMQKRKGFGRKREMLCGVMEQTLPLPCSAPWFNRTGSSKREAAIIGGGIASALLSLALLRRGWQVTLYCADEAPALGASGNRQGALYPLLSKHDEALNRFFSNAFTFARRFYDQLPVKFDHDWCGVTQLGWDEKSQHKIAQMLSMDLPAELAVAVEANAVEQITGVATNCSGITYPQGGWLCPAELTRNVLELAQQQGLQIYYQYQLQNLSRKDDCWLLNFAGDQQATHSVVVLANGHQISRFSQTSTLPVYSVAGQVSHIPTTPELAELKQVLCYDGYLTPQNPANQHHCIGASYHRGSEDTAYSEDDQQQNRQRLIDCFPQAQWAKEVDVSDKEARCGVRCATRDHLPMVGNVPDYEATLVEYASLAEQKDEAVSAPVFDDLFMFAALGSRGLCSAPLCAEILAAQMSDEPIPMDASTLAALNPNRLWVRKLLKGKAVKAG

binding [3]: no binding
B3: His-MnmC(m), MnmC(m) domain fused at its N-terminal end to a 6x-His-epitope (domain or fragment, E. coli, UniProt P77182 1-250, looked up)
chain: MKHYSIQPANLEFNAEGTPVSRDFDDVYFSNDNGLEETRYVFLGGNQLEVRFPEHPHPLFVVAESGFGTGLNFLTLWQAFDQFREAHPQAQLQRLHFISFEKFPLTRADLALAHQHWPELAPWAEQLQAQWPMPLPGCHRLLLDEGRVTLDLWFGDINELTSQLDDSLNQKVDAWFLDGFAPAKNPDMWTQNLFNAMARLARPGGTLATFTSAGFVRRGLQDAGFTMQKRKGFGRKREMLCGVMEQTLPL

Source: paper PMC3936742 (Nucleic Acids Research, 2013)
